In PMC11123394:
Results are given in words; binding and its absence hold for the method and conditions named. A result given as binding can be weak or reduced; the word gives no strength.

Amino acid sequences for entries named in this document (tags omitted). A change or cut given only in a name is not applied to a line headed by its entry.
UniProt Q7Y0Y8: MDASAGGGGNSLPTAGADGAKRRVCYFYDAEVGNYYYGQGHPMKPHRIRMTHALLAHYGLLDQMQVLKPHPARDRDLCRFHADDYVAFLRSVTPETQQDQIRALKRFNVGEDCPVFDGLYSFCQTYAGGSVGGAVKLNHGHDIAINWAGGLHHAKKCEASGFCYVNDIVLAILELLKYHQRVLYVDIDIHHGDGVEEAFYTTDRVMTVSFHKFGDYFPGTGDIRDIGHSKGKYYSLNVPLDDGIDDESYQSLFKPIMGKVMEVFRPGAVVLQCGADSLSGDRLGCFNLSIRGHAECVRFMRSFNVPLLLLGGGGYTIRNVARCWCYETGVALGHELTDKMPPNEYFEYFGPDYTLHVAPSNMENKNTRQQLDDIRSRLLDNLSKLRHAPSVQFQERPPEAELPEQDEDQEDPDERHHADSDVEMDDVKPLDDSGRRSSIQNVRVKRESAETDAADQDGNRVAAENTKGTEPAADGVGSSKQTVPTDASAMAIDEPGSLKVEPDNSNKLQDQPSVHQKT
UniProt Q6F368: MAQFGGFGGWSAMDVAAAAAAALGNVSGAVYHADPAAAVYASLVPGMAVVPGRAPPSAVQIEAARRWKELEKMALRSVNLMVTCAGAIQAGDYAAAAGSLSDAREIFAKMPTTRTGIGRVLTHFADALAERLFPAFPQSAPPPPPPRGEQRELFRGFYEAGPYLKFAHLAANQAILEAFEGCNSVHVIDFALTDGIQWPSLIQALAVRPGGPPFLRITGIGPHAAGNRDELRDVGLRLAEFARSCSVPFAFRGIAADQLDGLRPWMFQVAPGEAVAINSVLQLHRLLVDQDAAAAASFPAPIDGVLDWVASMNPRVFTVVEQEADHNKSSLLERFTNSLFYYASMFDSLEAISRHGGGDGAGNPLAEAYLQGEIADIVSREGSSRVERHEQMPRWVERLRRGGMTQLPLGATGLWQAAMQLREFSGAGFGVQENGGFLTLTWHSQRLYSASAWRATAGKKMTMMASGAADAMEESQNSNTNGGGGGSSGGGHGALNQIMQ

Molecular target: GST-OsHDAC1 (rice (Oryza sativa)) (UniProt Q7Y0Y8)
Assay: pull-down; glutathione resin with GST or GST-OsHDAC1 incubated with MBP-OsGRAS30-His in phosphate-buffered saline, 4 °C, 2 h; detection with anti-His; both purified

- binding: binds
Substance: MBP-OsGRAS30-His (from UniProt Q6F368)
